Experimental data published in patent US20230134869A1, “CRYSTAL FORM OF FREE ALKALI OF NITROGEN-CONTAINING AROMATIC DERIVATIVES” (Shanghai Hansoh Biomedical Co., Ltd., priority 2020, published 2023).
Some entries share one result that the patent states for a list of compounds.

Assay: Solid stability experiment under light (amorphous form, crystal forms A and B of the Example 53 compound)
Assay type: physicochemical
Conditions: light 5000 lx±500 lx, 10 days
Description: The content was determined by HPLC using the external standard method. The related substance change was calculated by chromatographic peak area normalization method.

SMILES	10-day total impurities gain
Nc1nc(N2CCC3(CC2)Cc2ccccc2[C@H]3N)c(F)nc1Sc1ccnc(N)c1Cl [crystal form B of (S)-1′-(6-amino-5-((2-amino-3-chloropyridi] [(S)-1′-(6-amino-5-((2-amino-3-chloropyridin-4-yl)thio)-3-fluoropyrazin-2-yl)-1,3-dihydrospiro[indene-2,4′-piperidin]-1-amine]	less than 2%
Nc1nc(N2CCC3(CC2)Cc2ccccc2[C@H]3N)c(F)nc1Sc1ccnc(N)c1Cl [crystal form A of (S)-1′-(6-amino-5-((2-amino-3-chloropyridi] [(S)-1′-(6-amino-5-((2-amino-3-chloropyridin-4-yl)thio)-3-fluoropyrazin-2-yl)-1,3-dihydrospiro[indene-2,4′-piperidin]-1-amine]	less than 2%
